Data source: PubChem BioAssay AID1508597 (Cure First, 2020)

- Test: 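Genes whose silencing sensitises or protects ovarian cancer cells against rucaparib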 (primary screen)
- Cell system: human ovarian carcinoma lines grown from tumours: OCI-P5x (papillary serous) and OCI-C5x (clear cell)
- Reagent: siRNA pool against human genes, 1.25 pmol siRNA per well
- Time to read-out: 72 h or 96 h, depending on the cell culture
- Conditions: rucaparib 20 µM (about IC30) or vehicle, present until read-out
- Rucaparib or vehicle: Rucaparib
- Cell line: OCI-C5x (clear cell)
- Measured: 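ATP luminescence measured at 72 or 96 h according to the culture, then normalised and expressed as percent viability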
- Reading the numbers: viability, normalised: higher = more viable cells remaining
- Hit rule: 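a well counts as a hit if its normalised viability is under 80 percent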
- Meaning of the calls: active = viability under 80%; inactive = viability 80% or more
Shown is a random part of the about 2,100 reagents, under one of the conditions tested. 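Calls flag viability under 80% in either arm, not effects specific to rucaparib; the reference for percent is not stated.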 No sequences are given here. Not stated in the record: the 100% reference.

ENPP4, technical replicate 1 — viability, normalised (%) = 47.9; call = active
ENPP4, technical replicate 2 — viability, normalised (%) = 38.7; call = active
ENPP4, technical replicate 3 — viability, normalised (%) = 35.8; call = active
TLR7, technical replicate 1 — viability, normalised (%) = 70.8; call = active
TLR7, technical replicate 2 — viability, normalised (%) = 61.9; call = active
TLR7, technical replicate 3 — viability, normalised (%) = 53.5; call = active

The list goes on, starting with the last 2 of the part before.
TLR7, technical replicate 2 — viability, normalised (%) = 61.9; call = active
TLR7, technical replicate 3 — viability, normalised (%) = 53.5; call = active
CARD14, technical replicate 1 — viability, normalised (%) = 48.3; call = active
CARD14, technical replicate 2 — viability, normalised (%) = 33.6; call = active
CARD14, technical replicate 3 — viability, normalised (%) = 72.8; call = active
FANCI, technical replicate 1 — viability, normalised (%) = 48.8; call = active
FANCI, technical replicate 2 — viability, normalised (%) = 45.7; call = active
FANCI, technical replicate 3 — viability, normalised (%) = 46; call = active
